From publication PMC9681780
No constants are given. Whether binding was seen depends on the method and setting. In cells and extracts the contact can be indirect. Some entries that bind do so weakly or less than the wild type. Sequences can lack the tags named with a protein.

Biological target: T1, PRSS22 wild type with C-terminal Flag tag (pcDNA3.1-PRSS22) (human) (UniProt Q9GZN4)
T1 sequence: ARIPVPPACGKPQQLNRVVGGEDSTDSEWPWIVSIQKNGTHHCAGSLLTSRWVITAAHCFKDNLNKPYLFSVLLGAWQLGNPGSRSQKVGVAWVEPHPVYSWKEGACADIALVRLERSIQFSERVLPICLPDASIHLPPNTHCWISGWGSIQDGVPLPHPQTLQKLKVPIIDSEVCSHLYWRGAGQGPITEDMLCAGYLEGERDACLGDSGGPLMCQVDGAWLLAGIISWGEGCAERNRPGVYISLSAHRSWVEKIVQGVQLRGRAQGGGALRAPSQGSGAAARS
Test: co-IP; Co-IP from BC cells followed by Western blot (Fig. 4G); PRSS22-Flag precipitated with Flag Tag Immunomagnetic Beads

binding: binds
B1: ANXA1 (Annexin A1) (protein, UniProt P04083 1-346)
chain: MAMVSEFLKQAWFIENEEQEYVQTVKSSKGGPGSAVSPYPTFNPSSDVAALHKAIMVKGVDEATIIDILTKRNNAQRQQIKAAYLQETGKPLDETLKKALTGHLEEVVLALLKTPAQFDADELRAAMKGLGTDEDTLIEILASRTNKEIRDINRVYREELKRDLAKDITSDTSGDFRNALLSLAKGDRSEDFGVNEDLADSDARALYEAGERRKGTDVNVFNTILTTRSYPQLRRVFQKYTKYSKHDMNKVLDLELKGDIEKCLTAIVKCATSKPAFFAEKLHQAMKGVGTRHKALIRIMVSRSEIDMNDIKAFYQKMYGISLCQAILDETKGDYEKILVALCGGN
